Source: the supplement of paper PMC10849652
This is one part of the list.

By UniProt entry, the sequences of proteins in these tests, tags left out. Where a name states a change or a piece, a line headed by the entry shows the natural chain unless it says otherwise.
UniProt P52657, whole entry, looked up: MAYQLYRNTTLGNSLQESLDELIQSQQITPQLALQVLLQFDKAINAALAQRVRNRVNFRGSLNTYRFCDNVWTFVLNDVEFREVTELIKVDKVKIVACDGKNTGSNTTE
UniProt P02008: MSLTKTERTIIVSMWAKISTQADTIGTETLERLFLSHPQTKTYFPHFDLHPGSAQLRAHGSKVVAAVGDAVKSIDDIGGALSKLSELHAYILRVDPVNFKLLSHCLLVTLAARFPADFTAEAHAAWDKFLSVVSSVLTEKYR
UniProt P09211: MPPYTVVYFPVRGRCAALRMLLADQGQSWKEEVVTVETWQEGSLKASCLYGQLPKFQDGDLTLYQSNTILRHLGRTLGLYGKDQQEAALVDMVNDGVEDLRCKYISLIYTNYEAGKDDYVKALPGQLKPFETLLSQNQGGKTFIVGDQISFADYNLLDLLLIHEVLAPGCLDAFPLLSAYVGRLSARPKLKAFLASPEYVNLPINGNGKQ
UniProt P29084: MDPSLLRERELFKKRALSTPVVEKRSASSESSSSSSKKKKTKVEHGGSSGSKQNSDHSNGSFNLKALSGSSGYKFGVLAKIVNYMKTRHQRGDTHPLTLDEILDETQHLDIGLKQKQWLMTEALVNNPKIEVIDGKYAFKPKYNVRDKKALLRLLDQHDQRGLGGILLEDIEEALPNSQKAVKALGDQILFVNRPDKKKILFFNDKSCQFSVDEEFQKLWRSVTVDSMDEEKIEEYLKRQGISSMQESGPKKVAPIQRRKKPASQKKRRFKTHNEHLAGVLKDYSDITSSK
UniProt Q7Z4Q2: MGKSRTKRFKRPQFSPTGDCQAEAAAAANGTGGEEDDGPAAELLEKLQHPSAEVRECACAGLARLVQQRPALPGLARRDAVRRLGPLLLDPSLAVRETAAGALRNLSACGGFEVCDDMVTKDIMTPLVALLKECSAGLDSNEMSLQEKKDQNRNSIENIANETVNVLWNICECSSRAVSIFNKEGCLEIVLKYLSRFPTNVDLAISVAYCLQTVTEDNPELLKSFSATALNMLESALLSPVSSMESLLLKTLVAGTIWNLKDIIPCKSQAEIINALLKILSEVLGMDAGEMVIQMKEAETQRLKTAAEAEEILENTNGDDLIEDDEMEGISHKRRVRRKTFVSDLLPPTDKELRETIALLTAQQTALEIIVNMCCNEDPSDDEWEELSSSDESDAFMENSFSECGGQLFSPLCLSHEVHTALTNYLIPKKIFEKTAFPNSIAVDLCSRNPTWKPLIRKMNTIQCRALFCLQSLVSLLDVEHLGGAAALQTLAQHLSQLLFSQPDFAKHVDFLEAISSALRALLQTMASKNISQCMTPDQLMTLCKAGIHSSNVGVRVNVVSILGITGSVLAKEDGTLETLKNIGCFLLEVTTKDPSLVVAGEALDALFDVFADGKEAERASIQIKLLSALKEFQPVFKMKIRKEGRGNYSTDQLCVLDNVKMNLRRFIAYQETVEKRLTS
UniProt Q8N442: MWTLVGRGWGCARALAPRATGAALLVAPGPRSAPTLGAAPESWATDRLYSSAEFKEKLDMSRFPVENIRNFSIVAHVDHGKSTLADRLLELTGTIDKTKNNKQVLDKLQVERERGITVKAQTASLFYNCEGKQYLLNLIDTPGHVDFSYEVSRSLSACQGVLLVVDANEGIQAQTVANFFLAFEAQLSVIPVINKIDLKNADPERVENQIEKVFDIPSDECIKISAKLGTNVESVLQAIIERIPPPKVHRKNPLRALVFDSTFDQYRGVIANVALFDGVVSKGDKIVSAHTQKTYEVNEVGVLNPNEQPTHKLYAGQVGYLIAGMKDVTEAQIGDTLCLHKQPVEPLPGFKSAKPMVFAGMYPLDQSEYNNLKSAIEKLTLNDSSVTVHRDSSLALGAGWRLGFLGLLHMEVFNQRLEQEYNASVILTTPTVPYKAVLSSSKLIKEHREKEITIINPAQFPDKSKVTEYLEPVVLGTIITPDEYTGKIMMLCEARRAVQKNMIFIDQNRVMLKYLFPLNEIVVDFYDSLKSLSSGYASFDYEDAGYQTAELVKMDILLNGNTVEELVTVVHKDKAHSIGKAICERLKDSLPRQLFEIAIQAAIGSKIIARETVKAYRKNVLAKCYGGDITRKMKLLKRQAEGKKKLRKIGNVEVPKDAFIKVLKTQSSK
UniProt Q13889: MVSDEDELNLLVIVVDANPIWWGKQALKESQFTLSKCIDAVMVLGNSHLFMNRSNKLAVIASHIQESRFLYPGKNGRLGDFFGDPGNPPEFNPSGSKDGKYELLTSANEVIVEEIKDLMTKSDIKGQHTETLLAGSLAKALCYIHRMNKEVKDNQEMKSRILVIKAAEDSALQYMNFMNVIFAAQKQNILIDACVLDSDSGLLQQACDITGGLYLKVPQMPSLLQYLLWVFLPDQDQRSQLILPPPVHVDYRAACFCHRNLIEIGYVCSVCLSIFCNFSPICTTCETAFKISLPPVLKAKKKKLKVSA
UniProt Q7Z4H3: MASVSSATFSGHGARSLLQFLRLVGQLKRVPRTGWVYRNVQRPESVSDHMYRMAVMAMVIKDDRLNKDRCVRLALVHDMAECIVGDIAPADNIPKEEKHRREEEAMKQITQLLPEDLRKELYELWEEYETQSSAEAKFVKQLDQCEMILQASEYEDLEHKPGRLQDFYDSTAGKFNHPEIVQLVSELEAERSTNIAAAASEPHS
UniProt Q9H6D7: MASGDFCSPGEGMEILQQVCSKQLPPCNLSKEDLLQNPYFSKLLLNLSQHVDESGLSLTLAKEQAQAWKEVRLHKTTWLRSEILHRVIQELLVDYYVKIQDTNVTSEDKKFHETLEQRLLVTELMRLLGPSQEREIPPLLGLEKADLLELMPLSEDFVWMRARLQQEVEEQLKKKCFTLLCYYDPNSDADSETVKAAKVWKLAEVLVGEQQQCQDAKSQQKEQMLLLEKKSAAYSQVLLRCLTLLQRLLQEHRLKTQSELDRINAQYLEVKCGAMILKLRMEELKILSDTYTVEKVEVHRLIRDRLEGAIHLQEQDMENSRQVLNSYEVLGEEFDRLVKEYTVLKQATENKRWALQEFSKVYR
UniProt Q92769, whole entry, looked up: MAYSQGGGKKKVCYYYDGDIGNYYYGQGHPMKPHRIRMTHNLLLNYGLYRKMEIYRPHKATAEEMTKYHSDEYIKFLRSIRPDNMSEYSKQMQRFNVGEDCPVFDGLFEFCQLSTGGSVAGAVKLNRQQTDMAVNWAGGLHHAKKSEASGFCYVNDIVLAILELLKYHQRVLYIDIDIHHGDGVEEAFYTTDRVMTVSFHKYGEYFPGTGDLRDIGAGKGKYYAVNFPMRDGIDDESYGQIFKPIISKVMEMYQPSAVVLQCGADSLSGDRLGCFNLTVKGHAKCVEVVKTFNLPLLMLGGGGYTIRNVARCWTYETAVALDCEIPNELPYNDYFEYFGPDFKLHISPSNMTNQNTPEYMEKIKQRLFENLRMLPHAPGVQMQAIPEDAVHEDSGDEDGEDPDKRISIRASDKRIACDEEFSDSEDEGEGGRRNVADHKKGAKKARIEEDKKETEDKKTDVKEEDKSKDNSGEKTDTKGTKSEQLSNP
UniProt P08236: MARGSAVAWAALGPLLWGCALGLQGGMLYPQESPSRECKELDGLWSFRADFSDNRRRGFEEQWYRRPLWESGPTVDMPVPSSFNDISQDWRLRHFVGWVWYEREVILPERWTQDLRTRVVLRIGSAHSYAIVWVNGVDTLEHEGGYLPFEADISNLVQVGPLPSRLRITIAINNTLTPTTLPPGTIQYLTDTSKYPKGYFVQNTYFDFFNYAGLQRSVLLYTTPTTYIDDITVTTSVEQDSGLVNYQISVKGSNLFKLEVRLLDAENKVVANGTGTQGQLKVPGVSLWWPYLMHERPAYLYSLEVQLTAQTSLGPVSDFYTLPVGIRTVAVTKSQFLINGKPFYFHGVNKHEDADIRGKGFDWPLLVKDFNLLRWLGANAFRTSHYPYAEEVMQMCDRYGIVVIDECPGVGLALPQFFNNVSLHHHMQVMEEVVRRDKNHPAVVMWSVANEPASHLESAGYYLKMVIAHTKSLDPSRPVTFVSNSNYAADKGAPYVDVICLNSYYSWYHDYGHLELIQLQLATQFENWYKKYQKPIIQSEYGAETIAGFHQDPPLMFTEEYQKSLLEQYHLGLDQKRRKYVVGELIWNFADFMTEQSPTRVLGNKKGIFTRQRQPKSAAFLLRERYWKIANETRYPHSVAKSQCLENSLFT
UniProt P78417: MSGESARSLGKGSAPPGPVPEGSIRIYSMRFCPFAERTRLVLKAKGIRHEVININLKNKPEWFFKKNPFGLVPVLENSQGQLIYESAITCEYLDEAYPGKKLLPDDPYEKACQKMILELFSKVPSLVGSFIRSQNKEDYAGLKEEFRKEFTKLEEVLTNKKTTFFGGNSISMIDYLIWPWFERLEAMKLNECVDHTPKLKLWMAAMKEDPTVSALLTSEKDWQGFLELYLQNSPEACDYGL
UniProt Q03013: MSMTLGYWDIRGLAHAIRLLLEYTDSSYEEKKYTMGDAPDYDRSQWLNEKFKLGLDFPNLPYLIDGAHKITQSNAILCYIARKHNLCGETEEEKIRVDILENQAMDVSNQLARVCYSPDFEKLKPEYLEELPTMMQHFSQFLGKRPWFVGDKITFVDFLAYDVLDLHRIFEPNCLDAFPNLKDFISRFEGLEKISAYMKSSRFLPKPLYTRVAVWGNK
UniProt O14929: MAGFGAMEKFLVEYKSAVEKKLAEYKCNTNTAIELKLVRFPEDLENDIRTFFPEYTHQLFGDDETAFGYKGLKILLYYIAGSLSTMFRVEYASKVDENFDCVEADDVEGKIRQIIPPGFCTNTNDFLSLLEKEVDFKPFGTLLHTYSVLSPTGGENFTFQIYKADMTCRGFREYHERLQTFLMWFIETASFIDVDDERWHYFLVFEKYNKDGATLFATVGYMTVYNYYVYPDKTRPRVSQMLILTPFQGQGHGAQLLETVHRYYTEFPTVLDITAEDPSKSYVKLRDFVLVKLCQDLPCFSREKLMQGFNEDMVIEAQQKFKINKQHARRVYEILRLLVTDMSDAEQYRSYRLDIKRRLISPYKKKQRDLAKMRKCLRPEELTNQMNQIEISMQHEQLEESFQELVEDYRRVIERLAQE
UniProt Q7Z4V5: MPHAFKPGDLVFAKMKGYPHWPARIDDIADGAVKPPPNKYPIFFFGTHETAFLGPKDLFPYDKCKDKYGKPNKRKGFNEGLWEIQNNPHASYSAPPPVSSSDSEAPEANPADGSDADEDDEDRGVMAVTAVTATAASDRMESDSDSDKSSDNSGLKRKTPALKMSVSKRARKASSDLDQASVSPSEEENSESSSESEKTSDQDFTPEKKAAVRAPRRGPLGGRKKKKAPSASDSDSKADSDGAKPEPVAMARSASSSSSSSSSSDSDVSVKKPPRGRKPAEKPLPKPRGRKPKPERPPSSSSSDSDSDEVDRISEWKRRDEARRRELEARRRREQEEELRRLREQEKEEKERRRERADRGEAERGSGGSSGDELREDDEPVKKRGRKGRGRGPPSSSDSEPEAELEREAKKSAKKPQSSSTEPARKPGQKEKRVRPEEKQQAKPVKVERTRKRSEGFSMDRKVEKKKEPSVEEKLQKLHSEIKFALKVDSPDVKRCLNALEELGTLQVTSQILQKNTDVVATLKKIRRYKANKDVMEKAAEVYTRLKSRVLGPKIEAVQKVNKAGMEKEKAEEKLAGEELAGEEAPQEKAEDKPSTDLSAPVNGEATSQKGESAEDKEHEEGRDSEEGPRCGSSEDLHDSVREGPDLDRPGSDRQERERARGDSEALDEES
UniProt P29083: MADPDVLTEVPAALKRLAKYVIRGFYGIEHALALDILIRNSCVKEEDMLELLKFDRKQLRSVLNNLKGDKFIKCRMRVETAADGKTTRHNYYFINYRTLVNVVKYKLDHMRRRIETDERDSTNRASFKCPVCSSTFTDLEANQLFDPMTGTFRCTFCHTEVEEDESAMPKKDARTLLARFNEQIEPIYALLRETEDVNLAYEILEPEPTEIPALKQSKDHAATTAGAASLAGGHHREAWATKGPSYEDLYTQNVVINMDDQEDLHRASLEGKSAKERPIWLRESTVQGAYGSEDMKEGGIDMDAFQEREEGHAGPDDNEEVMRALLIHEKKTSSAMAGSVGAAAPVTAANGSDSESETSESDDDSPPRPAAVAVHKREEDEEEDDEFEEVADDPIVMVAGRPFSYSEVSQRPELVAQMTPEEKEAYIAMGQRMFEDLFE
UniProt Q92522: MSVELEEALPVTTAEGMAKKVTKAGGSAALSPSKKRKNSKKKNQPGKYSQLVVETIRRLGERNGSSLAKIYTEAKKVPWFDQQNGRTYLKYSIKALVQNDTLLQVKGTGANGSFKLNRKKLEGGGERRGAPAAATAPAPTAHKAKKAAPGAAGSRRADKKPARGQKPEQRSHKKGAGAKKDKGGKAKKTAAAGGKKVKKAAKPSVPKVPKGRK
UniProt Q9H0R4: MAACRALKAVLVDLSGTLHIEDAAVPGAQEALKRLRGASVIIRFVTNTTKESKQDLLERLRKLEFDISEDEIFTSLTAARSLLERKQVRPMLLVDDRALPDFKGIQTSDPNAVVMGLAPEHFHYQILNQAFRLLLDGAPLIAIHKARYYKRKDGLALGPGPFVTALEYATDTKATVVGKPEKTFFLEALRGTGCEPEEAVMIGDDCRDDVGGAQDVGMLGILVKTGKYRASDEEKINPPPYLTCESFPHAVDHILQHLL

These targets were tested with COC(=O)[C@H](CCSC)NC(=O)C1=C(C=C(C=C1)NC[C@H](CS)N)C2=CC=CC=C2 (assay: log2 fold change, soluble protein after heating vs DMSO (PISA); higher = thermal stabilisation; K562 cells, 10 uM, 30 min; active = over 0.2 and 3.5 SD of the protein, either way, in both replicates (recomputed)).
In short: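 Aliquots of K562 cells (2×10^6 cells/mL) treated with 10 μM compound for 30 min were heated for 3 min over 48°C-58°C. After pooling and extraction in PBS with 0.5% NP-40 at 4°C, soluble protein from a 21,000xg, 90 min spin was quantified by TMTpro 16plex LC-MS/MS with channel sums equalised. Thermal stability is expressed against control samples, from duplicates, as a log2 fold change.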

log2 fold change, inactive:
GYS1 (UniProt P13807) -0.047, HBQ1 (UniProt P09105) 0.028, GTF2A2 (UniProt P52657) 0.018, HBZ (UniProt P02008) -0.025, GTF2A1 (UniProt P52655) 0.032, HBA1 (UniProt P69905) -0.034, GSTP1 (UniProt P09211) 0.027, GTF2E2 (UniProt P29084) -0.035, HEATR3 (UniProt Q7Z4Q2) -0.006, GUF1 (UniProt Q8N442) 0.004, GYG1 (UniProt P46976) 0.013, GTF2H3 (UniProt Q13889) 0.043, HAX1 (UniProt O00165) -0.013, HDDC2 (UniProt Q7Z4H3) -0.013, HDAC1 (UniProt Q13547) -0.062, GUK1 isoform 2 (UniProt Q16774) 0, GSK3B isoform 2 (UniProt P49841) 0.03, HECTD1 (UniProt Q9ULT8) -0.018, HAUS4 (UniProt Q9H6D7) -0.03, HDAC2 (UniProt Q92769) -0.006, GUSB (UniProt P08236) 0.029, H2AFX (UniProt P16104) 0.233, GSTO1 (UniProt P78417) 0, HDAC6 (UniProt Q9UBN7) -0.014, HADHB (UniProt P55084) -0.223, GSTM4 (UniProt Q03013) 0.093, HEXA (UniProt P06865) 0.016, GTF3A (UniProt Q92664) 0, H2AZ1 (UniProt P0C0S5) 0.105, GSR (UniProt P00390) 0.002, HEATR5B (UniProt Q9P2D3) -0.006, HEXB (UniProt P07686) -0.001, HAT1 (UniProt O14929) -0.017, HDGFL2 (UniProt Q7Z4V5) 0.036, GTF3C5 isoform 3 (UniProt Q9Y5Q8) -0.021, GTF2E1 (UniProt P29083) -0.099, H1FX (UniProt Q92522) 0.013, GTF3C4 (UniProt Q9UKN8) -0.01, HDHD2 (UniProt Q9H0R4) -0.018
